Our source for the binding values is patent publication US20110091479A1 (PIERRE FABRE MEDICAMENT, published 2011).

Chains of the proteins cited; added tags and fusions are not shown. Residues count along the entry.
UniProt P08069, residues 31-1367: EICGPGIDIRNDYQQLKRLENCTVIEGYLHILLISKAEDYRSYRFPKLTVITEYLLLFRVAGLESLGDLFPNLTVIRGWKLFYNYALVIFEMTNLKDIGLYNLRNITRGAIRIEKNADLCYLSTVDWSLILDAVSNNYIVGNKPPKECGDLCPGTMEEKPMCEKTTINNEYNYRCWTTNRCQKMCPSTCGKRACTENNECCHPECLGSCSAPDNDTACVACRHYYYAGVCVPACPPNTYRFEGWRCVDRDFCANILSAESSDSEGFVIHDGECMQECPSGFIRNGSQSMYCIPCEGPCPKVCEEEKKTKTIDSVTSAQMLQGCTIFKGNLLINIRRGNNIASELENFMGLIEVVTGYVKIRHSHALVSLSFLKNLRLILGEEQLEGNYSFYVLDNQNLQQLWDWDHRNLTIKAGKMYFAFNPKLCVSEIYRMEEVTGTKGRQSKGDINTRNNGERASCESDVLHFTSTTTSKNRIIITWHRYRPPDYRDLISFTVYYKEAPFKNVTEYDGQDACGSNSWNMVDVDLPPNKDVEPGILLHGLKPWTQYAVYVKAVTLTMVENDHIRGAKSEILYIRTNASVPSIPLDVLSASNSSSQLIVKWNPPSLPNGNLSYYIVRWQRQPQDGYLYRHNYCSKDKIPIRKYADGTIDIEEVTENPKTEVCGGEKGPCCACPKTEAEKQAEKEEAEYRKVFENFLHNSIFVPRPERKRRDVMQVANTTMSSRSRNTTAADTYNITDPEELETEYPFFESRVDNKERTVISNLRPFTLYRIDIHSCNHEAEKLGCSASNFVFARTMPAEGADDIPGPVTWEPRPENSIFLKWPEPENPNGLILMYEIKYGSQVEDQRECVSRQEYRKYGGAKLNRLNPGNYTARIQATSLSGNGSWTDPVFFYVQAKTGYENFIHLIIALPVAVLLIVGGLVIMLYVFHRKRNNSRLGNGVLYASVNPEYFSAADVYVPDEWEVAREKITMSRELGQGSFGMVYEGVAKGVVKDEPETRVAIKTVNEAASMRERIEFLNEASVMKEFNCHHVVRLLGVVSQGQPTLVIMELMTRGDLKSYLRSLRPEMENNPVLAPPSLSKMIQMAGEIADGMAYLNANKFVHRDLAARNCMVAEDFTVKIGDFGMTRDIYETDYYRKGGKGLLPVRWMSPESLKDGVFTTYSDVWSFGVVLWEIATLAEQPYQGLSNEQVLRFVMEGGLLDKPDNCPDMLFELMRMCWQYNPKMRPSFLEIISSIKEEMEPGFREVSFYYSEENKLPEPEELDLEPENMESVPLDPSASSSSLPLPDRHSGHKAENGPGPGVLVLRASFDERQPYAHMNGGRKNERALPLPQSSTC

For assay [1], the target named is human insulin-like growth factor I receptor IGF-IR (human) (UniProt P08069). Description: FACSCAN analysis on MCF-7 cells.
The target is the same in assay [2]. Nature of the assay: FACSCAN analysis on Sf9 IGF-1R+ cells.

Results are given in words; binding and its absence hold for the method and conditions named. Some entries that bind do so weakly or less than the wild type.

B1: 12D5 (antibody, V domains shown)
VH: QVQLKESGPGLVAPSQSLSITCTVSGFSLNEYGVSWIRQPPGKGLEWLGVIWGGRDTYYHSPLKSRLSITKDNSKSQVFLKMNSLQTDDTAMYYCAKHEGMDYWGQGTSVTVSS
VL: DIVMTQSQKFMSTSVGDRVSVTCKASQNVVTNVAWYQHKPGHSPKPLIYSASYRYSGVPDRFTGSGSGTDFTLTINNVQSEDLAEYFCHQYNNFPLTFGAGTKLELK
As for B1, the binding entry in assay [1] and in assay [2] was “binds” throughout.
